Assay results published in ChEMBL document CHEMBL4316593 (Eur J Med Chem, 2019).
This continues a long series; more values of the same kind are listed elsewhere.

Legend:
Assay type in all cases: cell-based
Details in all cases: U-87MG ATCC
[1] = Inhibition of RTK/PI3K/AKT/mTOR signaling in human U87 cells assessed as up regulation of TRIM65 gene expression at cytotoxic IC50 measured after 48 hrs relative to control
[2] = Inhibition of RTK/PI3K/AKT/mTOR signaling in human U87 cells assessed as down regulation of RNF168 gene expression at cytotoxic IC50 measured after 48 hrs relative to control
[3] = Inhibition of RTK/PI3K/AKT/mTOR signaling in human U87 cells assessed as up regulation of fibronectin type III and SPRY domain containing 1 gene expression at cytotoxic IC50 measured after 48 hrs relative to control
[4] = Inhibition of RTK/PI3K/AKT/mTOR signaling in human U87 cells assessed as down regulation of EMC8 gene expression at cytotoxic IC50 measured after 48 hrs relative to control
[5] = Inhibition of RTK/PI3K/AKT/mTOR signaling in human U87 cells assessed as up regulation of limb and CNS expressed 1 like gene expression at cytotoxic IC50 measured after 48 hrs relative to control
[6] = Inhibition of RTK/PI3K/AKT/mTOR signaling in human U87 cells assessed as up regulation of acid sensing ion channel subunit 1 gene expression at cytotoxic IC50 measured after 48 hrs relative to control
[7] = Inhibition of RTK/PI3K/AKT/mTOR signaling in human U87 cells assessed as down regulation of METAP2 gene expression at cytotoxic IC50 measured after 48 hrs relative to control
[8] = Inhibition of RTK/PI3K/AKT/mTOR signaling in human U87 cells assessed as up regulation of collagen type I alpha 1 chain gene expression at cytotoxic IC50 measured after 48 hrs relative to control
[9] = Inhibition of RTK/PI3K/AKT/mTOR signaling in human U87 cells assessed as down regulation of HABP4 gene expression at cytotoxic IC50 measured after 48 hrs relative to control
[10] = Inhibition of RTK/PI3K/AKT/mTOR signaling in human U87 cells assessed as down regulation of TNPO3 gene expression at cytotoxic IC50 measured after 48 hrs relative to control
[11] = Inhibition of RTK/PI3K/AKT/mTOR signaling in human U87 cells assessed as down regulation of WWC3 gene expression at cytotoxic IC50 measured after 48 hrs relative to control
[12] = Inhibition of RTK/PI3K/AKT/mTOR signaling in human U87 cells assessed as down regulation of LATS1 gene expression at cytotoxic IC50 measured after 48 hrs relative to control
[13] = Inhibition of RTK/PI3K/AKT/mTOR signaling in human U87 cells assessed as down regulation of PDHX gene expression at cytotoxic IC50 measured after 48 hrs relative to control
[14] = Inhibition of RTK/PI3K/AKT/mTOR signaling in human U87 cells assessed as down regulation of PDRG1 gene expression at cytotoxic IC50 measured after 48 hrs relative to control
[15] = Inhibition of RTK/PI3K/AKT/mTOR signaling in human U87 cells assessed as up regulation of ASXL1 gene expression at cytotoxic IC50 measured after 48 hrs relative to control
[16] = Inhibition of RTK/PI3K/AKT/mTOR signaling in human U87 cells assessed as down regulation of SUSD6 gene expression at cytotoxic IC50 measured after 48 hrs relative to control
[17] = Inhibition of RTK/PI3K/AKT/mTOR signaling in human U87 cells assessed as down regulation of FAM171B gene expression at cytotoxic IC50 measured after 48 hrs relative to control
[18] = Inhibition of RTK/PI3K/AKT/mTOR signaling in human U87 cells assessed as down regulation of SYF2 gene expression at cytotoxic IC50 measured after 48 hrs relative to control
[19] = Inhibition of RTK/PI3K/AKT/mTOR signaling in human U87 cells assessed as up regulation of DnaJ heat shock protein family (Hsp40) member C16 gene expression at cytotoxic IC50 measured after 48 hrs relative to control
[20] = Inhibition of RTK/PI3K/AKT/mTOR signaling in human U87 cells assessed as down regulation of SNX30 gene expression at cytotoxic IC50 measured after 48 hrs relative to control
[21] = Inhibition of RTK/PI3K/AKT/mTOR signaling in human U87 cells assessed as down regulation of EIF4A2 gene expression at cytotoxic IC50 measured after 48 hrs relative to control
[22] = Inhibition of RTK/PI3K/AKT/mTOR signaling in human U87 cells assessed as up regulation of SLC22A31 gene expression at cytotoxic IC50 measured after 48 hrs relative to control
[23] = Inhibition of RTK/PI3K/AKT/mTOR signaling in human U87 cells assessed as down regulation of TACC2 gene expression at cytotoxic IC50 measured after 48 hrs relative to control
[24] = Inhibition of RTK/PI3K/AKT/mTOR signaling in human U87 cells assessed as up regulation of interleukin 1 receptor accessory protein gene expression at cytotoxic IC50 measured after 48 hrs relative to control
[25] = Inhibition of RTK/PI3K/AKT/mTOR signaling in human U87 cells assessed as up regulation of tripartite motif containing 27 gene expression at cytotoxic IC50 measured after 48 hrs relative to control
[26] = Inhibition of RTK/PI3K/AKT/mTOR signaling in human U87 cells assessed as down regulation of ZNF367 gene expression at cytotoxic IC50 measured after 48 hrs relative to control
[27] = Inhibition of RTK/PI3K/AKT/mTOR signaling in human U87 cells assessed as up regulation of ANXA1 gene expression at cytotoxic IC50 measured after 48 hrs relative to control
[28] = Inhibition of RTK/PI3K/AKT/mTOR signaling in human U87 cells assessed as up regulation of BAH domain and coiled-coil containing 1 gene expression at cytotoxic IC50 measured after 48 hrs relative to control
[29] = Inhibition of RTK/PI3K/AKT/mTOR signaling in human U87 cells assessed as up regulation of ArfGAP with GTPase domain, ankyrin repeat and PH domain 2 gene expression at cytotoxic IC50 measured after 48 hrs relative to control
[30] = Inhibition of RTK/PI3K/AKT/mTOR signaling in human U87 cells assessed as up regulation of family with sequence similarity 175 member A gene expression at cytotoxic IC50 measured after 48 hrs relative to control
[31] = Inhibition of RTK/PI3K/AKT/mTOR signaling in human U87 cells assessed as up regulation of G protein-coupled receptor 155 gene expression at cytotoxic IC50 measured after 48 hrs relative to control
[32] = Inhibition of RTK/PI3K/AKT/mTOR signaling in human U87 cells assessed as down regulation of ZSCAN26 gene expression at cytotoxic IC50 measured after 48 hrs relative to control

CC(=O)C(=NNc1ccccc1C#N)C(C)=O
log2FC [1]: 2.15 | log2FC [2]: -1.04 | log2FC [3]: 0.958 | log2FC [4]: -0.769 | log2FC [5]: 1.04 | log2FC [6]: 1.35 | log2FC [7]: -0.416 | log2FC [8]: 1.19 | log2FC [9]: -1.34 | log2FC [10]: -0.522 | log2FC [11]: -1.75 | log2FC [12]: -0.529 | log2FC [13]: -0.69 | log2FC [14]: -0.816 | log2FC [15]: 0.612 | log2FC [16]: -1.39 | log2FC [17]: -1.31 | log2FC [18]: -0.489 | log2FC [19]: 0.767 | log2FC [20]: -0.838 | log2FC [21]: -0.693 | log2FC [22]: 2.98 | log2FC [23]: -0.748 | log2FC [24]: 1.2 | log2FC [25]: 0.729 | log2FC [26]: -1.56 | log2FC [27]: 2.41 | log2FC [28]: 1.1 | log2FC [29]: 0.782 | log2FC [30]: 1.38 | log2FC [31]: 1.26 | log2FC [32]: -1.17
